PubChem BioAssay AID504808, Drosophila RNAi Screening Center, 2011
In all, the deposit lists about 21,000 reagents; this is an unselected part of those with a known target gene and a result. Of all reagents, 18 (0.084%) are marked active. 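Raw counts without plate normalisation, one of two replicates; the ratio scores behind the calls were not deposited.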 Names joined by + are all predicted targets of the reagent. No sequences are given here. The record does not give: the amount of reagent, the time to read-out.

Purpose: 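Chromatin factors that keep E2F targets switched off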 (primary screen)
Cell system: Drosophila S2 cells
Reagents: long dsRNA against Drosophila genes
Read-out: 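Firefly luciferase driven by E2F sites, normalised to Renilla luciferase on the same minimal promoter, measured by plate reader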
Direction: E2F firefly: higher = more E2F reporter activity; Renilla normaliser: higher = more normaliser reporter signal
Hit rule: 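Called active if the normalised E2F reporter went up by over 50%; the cutoff is arbitrary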

target gene | DRSC id | E2F firefly, rep 1 | Renilla normaliser, rep 1 | Call
CG16704 | DRSC00475 | 1.45e5 | 5275 | inactive
CG1239 | DRSC12204 | 66050 | 3159 | inactive
Nab2 | DRSC14158 | 86250 | 5647 | inactive
TORIP | DRSC10104 | 72111 | 3352 | inactive
CG13130 (retired record) | DRSC02226 | 1.40e5 | 5191 | inactive
CG8172 | DRSC07089 | 1.53e5 | 4688 | inactive
CG8093 | DRSC07078 | 97604 | 4040 | inactive
LanB2 | DRSC11208 | 82916 | 4012 | inactive
ccb | DRSC20501 | 1.37e5 | 5186 | inactive
Ugt301D1 | DRSC02021 | 95692 | 4173 | inactive
CG30323 | DRSC07656 | 1.59e5 | 4529 | inactive
Rim | DRSC16224 | 1.27e5 | 7126 | inactive
Rim | DRSC16225 | 70625 | 3894 | inactive
Rim | DRSC16226 | 58579 | 3025 | inactive
Rim | DRSC16227 | 1.56e5 | 7657 | inactive
Rab32 | DRSC05146 | 1.41e5 | 5533 | inactive
Rab32 | DRSC07522 | 3111 | 166 | inactive
Ns2 | DRSC06993 | 63234 | 3499 | inactive
Rgl | DRSC11267 | 1.15e5 | 6051 | inactive
Est-6 | DRSC11162 | 1.26e5 | 7225 | inactive
AstC | DRSC02403 | 1.57e5 | 5351 | inactive
CG14929 + CG4970 | DRSC02411 | 1.53e5 | 5429 | inactive
CG14929 + CG4970 | DRSC02796 | 1.44e5 | 4714 | inactive
CG34280 | DRSC13229 | 87804 | 2301 | inactive
stnB + stnA | DRSC20969 | 61654 | 3805 | inactive
stnB + stnA | DRSC21112 | 77555 | 4665 | inactive
stnB + stnA | DRSC21113 | 1.34e5 | 7007 | inactive
CG13220 | DRSC06342 | 90265 | 4335 | inactive
CG9649 | DRSC16534 | 73877 | 2991 | inactive
CG15211 | DRSC19657 | 1.36e5 | 5870 | inactive

11 entries from above, reduced to “Renilla normaliser, rep 1”:
CG30323 [DRSC07656] = 4529
Rim [DRSC16224] = 7126
Rim [DRSC16225] = 3894
Rim [DRSC16226] = 3025
Rim [DRSC16227] = 7657
Rab32 [DRSC05146] = 5533
Rab32 [DRSC07522] = 166
Ns2 [DRSC06993] = 3499
Rgl [DRSC11267] = 6051
Est-6 [DRSC11162] = 7225
AstC [DRSC02403] = 5351

The listing continues:
target gene | DRSC id | E2F firefly, rep 1 | Renilla normaliser, rep 1 | Call
Uxs | DRSC10941 | 77287 | 3470 | inactive
Ip259 | DRSC03352 | 68707 | 3770 | inactive
alrm | DRSC14436 | 1.10e5 | 5563 | inactive
beat-IV | DRSC14195 | 70976 | 3249 | inactive
beat-IV | DRSC14673 | 1.03e5 | 5291 | inactive
yl | DRSC20387 | 2.30e5 | 6082 | inactive
Dbx | DRSC08270 | 91113 | 3784 | inactive
Dbx | DRSC08271 | 91217 | 4261 | inactive
Dbx | DRSC08394 | 99712 | 4257 | inactive
mRpL41 | DRSC06257 | 1.05e5 | 4301 | inactive
CG14232 | DRSC19588 | 1.74e5 | 5606 | inactive
vret | DRSC15640 | 74157 | 3490 | inactive
CG17977 | DRSC06700 | 1.45e5 | 4181 | inactive
dmrt99B | DRSC15045 | 49304 | 3433 | inactive
CG30196 | DRSC04156 | 1.11e5 | 4513 | inactive
Hug | DRSC16969 | 1.45e5 | 6918 | inactive
bun | DRSC01253 | 1.22e5 | 5911 | inactive
bun | DRSC01255 | 1.32e5 | 6170 | inactive
bun | DRSC03500 | 52039 | 2997 | inactive
CG7882 | DRSC04899 | 1.12e5 | 4749 | inactive
CG33158 | DRSC09708 | 51439 | 2946 | inactive
CG33158 | DRSC09709 | 1.61e5 | 8938 | inactive
CG33158 | DRSC10438 | 1.75e5 | 8046 | inactive
pyd3 | DRSC15459 | 78615 | 3211 | inactive
CG14662 | DRSC12248 | 1.23e5 | 5408 | inactive
roh | DRSC04003 | 1.39e5 | 5756 | inactive
CG1896 | DRSC15397 | 2094 | 952 | inactive
CG12343 | DRSC06135 | 1.32e5 | 6185 | inactive
GlyRS | DRSC10711 | 68381 | 3536 | inactive
qua | DRSC03598 | 89145 | 3851 | inactive
CG11756 | DRSC19424 | 1.37e5 | 6662 | inactive
spn-A | DRSC16812 | 1.23e5 | 5801 | inactive
BaraB | DRSC06420 | 1.56e5 | 4934 | inactive
alpha-Est7 | DRSC12619 | 57176 | 3177 | inactive
CG14609 | DRSC12553 | 1.17e5 | 7303 | inactive
byn | DRSC11332 | 82144 | 3328 | inactive
CG7335 | DRSC10816 | 1.30e5 | 6913 | inactive
Wwox | DRSC03030 | 85888 | 4016 | inactive
Hus1-like | DRSC12353 | 1.41e5 | 7622 | inactive
CG2256 | DRSC18220 | 1.09e5 | 6011 | inactive
CG31174 | DRSC13518 | 79859 | 2279 | inactive
m-cup | DRSC14430 | 1.24e5 | 6126 | inactive
Tsp97E | DRSC16019 | 1608 | 960 | inactive
T3dh + pgc | DRSC04659 | 96528 | 3278 | inactive
Rsf1 | DRSC03423 | 1.50e5 | 5611 | inactive
CG8343 | DRSC04905 | 67384 | 3567 | inactive
Liprin-beta | DRSC09795 | 99668 | 6758 | inactive
CheB42c | DRSC04972 | 1.44e5 | 5032 | inactive
Ccdc114 | DRSC15025 | 1.06e5 | 5941 | inactive
Grd | DRSC11178 | 1.63e5 | 8075 | inactive
ppl | DRSC11899 | 80738 | 4180 | inactive
CG10019 | DRSC00279 | 1.31e5 | 4857 | inactive
CG34012 | DRSC09089 | 1.24e5 | 4549 | inactive
defl | DRSC10300 | 1.04e5 | 3338 | inactive
